{
  "sequences": {"note": "The chains behind the UniProt entries cited, without tags or fusion partners.", "UniProt Q9NS91": "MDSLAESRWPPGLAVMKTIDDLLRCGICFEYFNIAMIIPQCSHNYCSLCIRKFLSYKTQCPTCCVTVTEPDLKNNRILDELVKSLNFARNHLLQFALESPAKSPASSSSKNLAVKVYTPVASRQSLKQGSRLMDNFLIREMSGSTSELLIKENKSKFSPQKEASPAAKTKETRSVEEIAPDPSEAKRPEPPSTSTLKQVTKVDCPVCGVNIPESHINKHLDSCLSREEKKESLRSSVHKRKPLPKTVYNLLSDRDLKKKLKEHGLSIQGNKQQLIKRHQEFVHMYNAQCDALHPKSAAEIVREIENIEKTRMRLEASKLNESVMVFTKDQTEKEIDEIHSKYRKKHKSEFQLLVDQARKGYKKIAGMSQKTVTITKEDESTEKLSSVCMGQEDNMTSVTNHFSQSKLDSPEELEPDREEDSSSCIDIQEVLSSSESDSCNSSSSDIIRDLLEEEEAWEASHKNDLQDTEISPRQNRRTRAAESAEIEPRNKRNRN"},
  "source": "paper PMC3157352",
  "binders": {"B1": {"name": "human RAD1, yeast two-hybrid fusion (protein, UniProt O60671 1-282)", "chain": "MPLLTQQIQDEDDQYSLVASLDNVRNLSTILKAIHFREHATCFATKNGIKVTVENAKCVQANAFIQAGIFQEFKVQEESVTFRINLTVLLDCLSIFGSSPMPGTLTALRMCYQGYGYPLMLFLEEGGVVTVCKINTQEPEETLDFDFCSTNVINKIILQSEGLREAFSELDMTSEVLQITMSPDKPYFRLSTFGNAGSSHLDYPKDSDLMEAFHCNQTQVNRYKISLLKPSTKALVLSCKVSIRTDNRGFLSLQYMIRNEDGQICFVEYYCCPDEEVPESES"}, "B2": {"name": "human HUS1, yeast two-hybrid fusion (protein, UniProt O60921 1-280)", "chain": "MKFRAKIVDGACLNHFTRISNMIAKLAKTCTLRISPDKLNFILCDKLANGGVSMWCELEQENFFNEFQMEGVSAENNEIYLELTSENLSRALKTAQNARALKIKLTNKHFPCLTVSVELLSMSSSSRIVTHDIPIKVIPRKLWKDLQEPVVPDPDVSIYLPVLKTMKSVVEKMKNISNHLVIEANLDGELNLKIETELVCVTTHFKDLGNPPLASESTHEDRNVEHMAEVHIDIRKLLQFLAGQQVNPTKALCNIVNNKMVHFDLLHEDVSLQYFIPALS"}},
  "key": {"[1]": {"biological_target": "human RAD18, yeast two-hybrid fusion (human) (UniProt Q9NS91)", "experiment": "two-hybrid; S. cerevisiae AH109, pGADT7 (Gal4 activation domain) and pGBKT7 (Gal4 binding domain) fusions; spot assay on SD-L-W-H and SD-L-W-H-A; RAD18 against the 9-1-1 components also with DNA damage (50 Gy IR, HU, MMS, CPT)"}, "[2]": {"biological_target": "T1, human HUS1, yeast two-hybrid fusion (human) (UniProt O60921)", "T1 sequence": "B2 chain", "experiment": "two-hybrid; S. cerevisiae AH109, pGADT7 (Gal4 activation domain) and pGBKT7 (Gal4 binding domain) fusions; spot assay on SD-L-W-H and SD-L-W-H-A; RAD18 against the 9-1-1 components also with DNA damage (50 Gy IR, HU, MMS, CPT)"}},
  "note": "Results are given in words; binding and its absence hold for the method and conditions named. Some entries that bind do so weakly or less than the wild type. Where a sequence is shown, tags or fusion partners need not be part of it.",
  "data": [
    {"binder": "B1", "values": [
      {"measurement": "binding", "setting": "[1]", "value": "no binding"},
      {"measurement": "binding", "setting": "[2]", "value": "binds"}
    ]},
    {"binder": "B2", "values": [
      {"measurement": "binding", "setting": "[1]", "value": "no binding"}
    ]}
  ]
}
